The values below come from PMC9304322, “Targeting retinoic acid receptor alpha-corepressor interaction activates chaperone-mediated autophagy and protects against retinal degeneration” (Nature Communications, 2022).

Protein sequences, listed by entry. Tags and fused reporters are not part of them.
UniProt Q60974: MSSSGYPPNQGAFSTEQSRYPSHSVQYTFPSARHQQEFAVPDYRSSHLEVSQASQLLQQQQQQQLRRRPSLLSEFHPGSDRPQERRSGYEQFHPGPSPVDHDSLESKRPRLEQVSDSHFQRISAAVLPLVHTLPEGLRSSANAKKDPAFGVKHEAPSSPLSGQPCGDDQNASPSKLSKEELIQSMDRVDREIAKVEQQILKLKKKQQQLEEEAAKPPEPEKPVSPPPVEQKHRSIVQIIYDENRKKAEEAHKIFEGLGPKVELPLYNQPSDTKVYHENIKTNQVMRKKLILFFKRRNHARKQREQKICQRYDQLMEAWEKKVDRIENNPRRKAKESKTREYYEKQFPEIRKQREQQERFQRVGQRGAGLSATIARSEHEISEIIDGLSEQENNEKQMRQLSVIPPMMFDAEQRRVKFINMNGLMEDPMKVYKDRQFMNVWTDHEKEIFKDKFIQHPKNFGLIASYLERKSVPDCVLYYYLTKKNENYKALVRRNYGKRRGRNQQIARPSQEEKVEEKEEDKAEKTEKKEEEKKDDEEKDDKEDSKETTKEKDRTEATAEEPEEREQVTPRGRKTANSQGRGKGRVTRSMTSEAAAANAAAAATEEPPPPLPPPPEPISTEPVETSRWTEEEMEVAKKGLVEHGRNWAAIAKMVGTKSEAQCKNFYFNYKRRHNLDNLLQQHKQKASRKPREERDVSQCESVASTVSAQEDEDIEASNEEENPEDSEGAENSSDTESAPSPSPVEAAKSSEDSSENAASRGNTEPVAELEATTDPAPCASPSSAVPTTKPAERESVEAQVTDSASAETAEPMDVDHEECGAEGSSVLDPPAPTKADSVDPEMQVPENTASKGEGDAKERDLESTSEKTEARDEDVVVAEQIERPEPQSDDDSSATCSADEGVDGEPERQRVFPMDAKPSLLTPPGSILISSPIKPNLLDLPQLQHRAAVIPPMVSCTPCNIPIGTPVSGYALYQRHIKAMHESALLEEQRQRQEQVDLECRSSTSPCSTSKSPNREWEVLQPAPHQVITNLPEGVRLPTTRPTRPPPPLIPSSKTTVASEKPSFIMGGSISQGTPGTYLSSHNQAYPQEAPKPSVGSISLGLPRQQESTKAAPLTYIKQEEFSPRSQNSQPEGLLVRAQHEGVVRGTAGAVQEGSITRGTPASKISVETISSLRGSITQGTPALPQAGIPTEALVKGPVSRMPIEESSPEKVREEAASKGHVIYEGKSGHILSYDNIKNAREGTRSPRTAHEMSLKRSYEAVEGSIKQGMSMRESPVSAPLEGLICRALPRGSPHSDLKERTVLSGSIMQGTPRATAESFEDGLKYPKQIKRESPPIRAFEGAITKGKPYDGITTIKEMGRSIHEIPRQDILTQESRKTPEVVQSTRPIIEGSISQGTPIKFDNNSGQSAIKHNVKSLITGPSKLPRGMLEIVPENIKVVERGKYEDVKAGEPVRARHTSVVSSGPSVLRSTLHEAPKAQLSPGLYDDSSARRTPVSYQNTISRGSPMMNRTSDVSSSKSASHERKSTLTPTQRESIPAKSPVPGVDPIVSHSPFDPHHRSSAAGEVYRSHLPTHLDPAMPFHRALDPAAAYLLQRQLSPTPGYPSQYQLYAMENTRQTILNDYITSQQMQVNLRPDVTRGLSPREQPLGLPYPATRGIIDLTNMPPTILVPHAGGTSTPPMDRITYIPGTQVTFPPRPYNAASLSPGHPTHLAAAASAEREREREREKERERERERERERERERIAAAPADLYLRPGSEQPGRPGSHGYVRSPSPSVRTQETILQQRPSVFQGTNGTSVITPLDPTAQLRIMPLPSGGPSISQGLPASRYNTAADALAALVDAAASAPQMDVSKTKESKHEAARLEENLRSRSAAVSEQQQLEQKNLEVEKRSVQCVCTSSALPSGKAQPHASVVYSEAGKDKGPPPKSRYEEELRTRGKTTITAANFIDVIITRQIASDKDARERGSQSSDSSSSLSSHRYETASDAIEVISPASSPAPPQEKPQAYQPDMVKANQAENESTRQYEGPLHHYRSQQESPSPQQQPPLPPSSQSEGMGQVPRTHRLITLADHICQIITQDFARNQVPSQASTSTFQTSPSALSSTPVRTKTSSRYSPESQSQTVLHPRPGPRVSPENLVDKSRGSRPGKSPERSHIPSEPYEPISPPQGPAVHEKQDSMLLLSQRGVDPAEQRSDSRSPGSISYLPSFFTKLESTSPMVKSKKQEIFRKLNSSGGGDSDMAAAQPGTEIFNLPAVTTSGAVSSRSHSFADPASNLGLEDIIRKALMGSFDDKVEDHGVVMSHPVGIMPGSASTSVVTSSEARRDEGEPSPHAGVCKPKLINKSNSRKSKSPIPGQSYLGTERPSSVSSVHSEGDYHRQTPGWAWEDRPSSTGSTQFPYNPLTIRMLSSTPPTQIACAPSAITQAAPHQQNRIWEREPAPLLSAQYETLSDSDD

No constants are given. Whether binding was seen depends on the method and setting. Binding seen in cells or lysates may run through a third protein. Some results given as binding are weak or reduced against the parent protein; the word gives no strength.

This assay deals with T1, cellular RARα (NIH3T3) (mouse (endogenous in NIH3T3)) (UniProt P11416).
T1 sequence: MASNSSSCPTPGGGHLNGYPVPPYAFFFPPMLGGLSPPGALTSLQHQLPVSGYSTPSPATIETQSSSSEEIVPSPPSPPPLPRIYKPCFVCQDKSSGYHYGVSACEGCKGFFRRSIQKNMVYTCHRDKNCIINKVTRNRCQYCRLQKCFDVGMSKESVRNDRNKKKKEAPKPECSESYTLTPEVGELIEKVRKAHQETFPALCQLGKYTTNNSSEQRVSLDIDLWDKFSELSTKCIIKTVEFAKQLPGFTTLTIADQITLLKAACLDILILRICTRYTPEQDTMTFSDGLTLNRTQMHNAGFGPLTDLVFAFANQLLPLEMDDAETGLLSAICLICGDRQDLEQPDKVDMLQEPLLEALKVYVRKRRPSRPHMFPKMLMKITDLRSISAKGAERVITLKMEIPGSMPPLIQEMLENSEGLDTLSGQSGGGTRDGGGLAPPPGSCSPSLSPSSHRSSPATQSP
The experiment in a line: pull-down; streptavidin pulldown from NIH3T3 cells incubated with biotin-CA (10 uM) for 24 h (controls: no addition, CA39 10 uM); immunoblot for N-CoR1 and RARα.

As to “cellular N-CoR1 (NIH3T3) (from UniProt Q60974 1-2453)”, the binding entry is “binds”.
